In publication PMC6398978:
These are yes or no findings as the source states them, for the method shown. Binding seen in cells or lysates may run through a third protein. Some binding calls cover weakened binding; strength is not graded here.

Sequences of proteins named here, by UniProt entry; tags and fusion partners are left off.
UniProt Q9WTL8: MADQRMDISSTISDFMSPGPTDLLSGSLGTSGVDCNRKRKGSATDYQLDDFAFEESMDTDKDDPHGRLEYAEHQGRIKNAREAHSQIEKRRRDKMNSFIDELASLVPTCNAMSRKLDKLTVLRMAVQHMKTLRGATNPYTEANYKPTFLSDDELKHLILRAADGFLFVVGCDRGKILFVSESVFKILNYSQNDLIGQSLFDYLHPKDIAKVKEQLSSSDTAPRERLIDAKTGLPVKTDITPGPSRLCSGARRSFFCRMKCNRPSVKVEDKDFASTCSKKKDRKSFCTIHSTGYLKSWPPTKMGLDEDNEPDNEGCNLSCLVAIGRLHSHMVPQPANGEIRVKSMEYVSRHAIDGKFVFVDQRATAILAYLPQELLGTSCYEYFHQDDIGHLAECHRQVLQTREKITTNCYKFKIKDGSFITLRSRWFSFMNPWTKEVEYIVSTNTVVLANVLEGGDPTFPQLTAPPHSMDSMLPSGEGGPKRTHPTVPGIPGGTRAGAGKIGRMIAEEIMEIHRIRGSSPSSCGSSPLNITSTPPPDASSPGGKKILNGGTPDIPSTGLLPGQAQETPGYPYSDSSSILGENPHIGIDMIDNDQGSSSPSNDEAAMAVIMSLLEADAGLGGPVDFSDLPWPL
UniProt Q9Z2V6: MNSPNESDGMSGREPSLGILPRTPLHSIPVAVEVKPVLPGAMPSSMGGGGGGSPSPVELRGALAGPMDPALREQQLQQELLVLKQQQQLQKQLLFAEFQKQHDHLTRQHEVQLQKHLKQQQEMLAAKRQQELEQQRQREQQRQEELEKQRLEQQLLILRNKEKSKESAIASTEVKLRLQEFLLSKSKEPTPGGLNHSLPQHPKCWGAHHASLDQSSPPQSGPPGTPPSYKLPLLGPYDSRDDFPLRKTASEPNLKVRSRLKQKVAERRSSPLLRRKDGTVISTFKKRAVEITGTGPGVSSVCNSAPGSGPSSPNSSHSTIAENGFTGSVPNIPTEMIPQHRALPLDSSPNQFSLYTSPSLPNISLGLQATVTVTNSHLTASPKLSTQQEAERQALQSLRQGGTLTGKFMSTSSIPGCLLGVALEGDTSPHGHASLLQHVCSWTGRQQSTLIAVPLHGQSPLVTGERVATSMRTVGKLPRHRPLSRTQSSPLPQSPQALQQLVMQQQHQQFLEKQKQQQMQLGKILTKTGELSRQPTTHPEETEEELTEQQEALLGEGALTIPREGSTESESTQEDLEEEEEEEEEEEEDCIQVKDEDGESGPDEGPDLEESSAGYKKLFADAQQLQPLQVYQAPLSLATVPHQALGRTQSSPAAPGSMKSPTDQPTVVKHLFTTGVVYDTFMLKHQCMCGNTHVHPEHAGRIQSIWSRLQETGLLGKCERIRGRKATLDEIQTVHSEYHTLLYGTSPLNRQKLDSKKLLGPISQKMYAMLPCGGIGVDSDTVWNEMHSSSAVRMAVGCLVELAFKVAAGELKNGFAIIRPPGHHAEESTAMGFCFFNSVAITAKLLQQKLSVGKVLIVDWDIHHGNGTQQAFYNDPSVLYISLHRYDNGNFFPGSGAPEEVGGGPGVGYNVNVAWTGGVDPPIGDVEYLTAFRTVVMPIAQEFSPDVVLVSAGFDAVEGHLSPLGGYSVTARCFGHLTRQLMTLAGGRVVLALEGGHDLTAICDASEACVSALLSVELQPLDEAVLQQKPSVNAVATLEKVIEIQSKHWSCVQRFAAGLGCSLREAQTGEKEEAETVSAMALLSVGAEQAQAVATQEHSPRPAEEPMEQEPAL
UniProt P10085: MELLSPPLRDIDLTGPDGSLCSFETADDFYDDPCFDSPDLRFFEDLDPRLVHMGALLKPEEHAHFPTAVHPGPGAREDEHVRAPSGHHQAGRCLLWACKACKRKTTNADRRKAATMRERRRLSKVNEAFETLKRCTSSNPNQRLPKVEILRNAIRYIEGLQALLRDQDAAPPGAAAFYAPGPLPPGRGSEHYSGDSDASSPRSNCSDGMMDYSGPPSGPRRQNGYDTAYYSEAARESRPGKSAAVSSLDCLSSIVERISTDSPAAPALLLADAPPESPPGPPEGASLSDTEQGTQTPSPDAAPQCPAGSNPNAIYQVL
UniProt Q8CFN5: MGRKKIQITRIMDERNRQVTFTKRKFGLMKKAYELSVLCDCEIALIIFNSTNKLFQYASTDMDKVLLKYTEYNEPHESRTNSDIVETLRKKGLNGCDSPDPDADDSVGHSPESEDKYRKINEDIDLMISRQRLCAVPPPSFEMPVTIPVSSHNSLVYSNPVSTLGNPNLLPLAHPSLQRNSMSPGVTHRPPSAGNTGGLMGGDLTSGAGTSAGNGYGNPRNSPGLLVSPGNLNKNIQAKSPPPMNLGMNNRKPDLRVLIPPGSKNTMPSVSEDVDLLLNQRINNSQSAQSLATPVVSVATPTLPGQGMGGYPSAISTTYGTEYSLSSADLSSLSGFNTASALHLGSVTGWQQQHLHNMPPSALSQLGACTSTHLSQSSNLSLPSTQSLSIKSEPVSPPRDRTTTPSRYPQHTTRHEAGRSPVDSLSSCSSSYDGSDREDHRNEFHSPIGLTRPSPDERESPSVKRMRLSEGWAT

Assays:
VN-CLOCK = biological target: T1, VN-CLOCK (UniProt O08785); assay: split reporter; Venus BiFC in C2C12 myoblasts; 250 ng of each VN and VC plasmid co-transfected with 100 ng mCherry; Leica SP8 confocal microscope 24 hr post transfection
T1 sequence: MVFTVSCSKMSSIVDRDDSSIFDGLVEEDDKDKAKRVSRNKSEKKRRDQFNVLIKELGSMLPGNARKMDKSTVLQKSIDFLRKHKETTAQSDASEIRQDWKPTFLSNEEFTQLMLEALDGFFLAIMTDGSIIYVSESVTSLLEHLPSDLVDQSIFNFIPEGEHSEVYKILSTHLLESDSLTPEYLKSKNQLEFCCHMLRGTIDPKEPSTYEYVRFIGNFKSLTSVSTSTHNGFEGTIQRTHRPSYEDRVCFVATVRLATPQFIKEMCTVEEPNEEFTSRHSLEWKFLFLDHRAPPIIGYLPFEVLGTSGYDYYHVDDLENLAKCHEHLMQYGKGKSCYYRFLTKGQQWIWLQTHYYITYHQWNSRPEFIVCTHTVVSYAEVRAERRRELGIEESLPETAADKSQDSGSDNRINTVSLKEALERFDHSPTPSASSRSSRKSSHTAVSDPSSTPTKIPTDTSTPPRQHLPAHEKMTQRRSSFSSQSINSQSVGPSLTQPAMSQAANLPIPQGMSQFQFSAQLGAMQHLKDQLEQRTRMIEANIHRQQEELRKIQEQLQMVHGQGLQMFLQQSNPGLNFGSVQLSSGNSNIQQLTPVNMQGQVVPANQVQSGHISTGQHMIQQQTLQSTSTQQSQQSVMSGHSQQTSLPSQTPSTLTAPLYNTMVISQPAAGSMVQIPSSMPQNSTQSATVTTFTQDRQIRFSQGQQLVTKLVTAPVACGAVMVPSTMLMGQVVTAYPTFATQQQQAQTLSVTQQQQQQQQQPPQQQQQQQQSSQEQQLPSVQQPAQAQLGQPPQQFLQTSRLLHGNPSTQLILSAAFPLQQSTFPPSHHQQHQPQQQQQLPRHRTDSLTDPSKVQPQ

VN-BMAL1 = VN-BMAL1 (UniProt Q9WTL8); assay: as above
VN-HDAC5 = VN-HDAC5 (UniProt Q9Z2V6); assay: as above
VN-MYOD1 = VN-MYOD1 (UniProt P10085); assay: split reporter; Venus BiFC with the fragments swapped (VN-MYOD1 with VC-CLOCK or VC-BMAL1); data not shown

## VC-MYOD1 (from UniProt P10085 1-318)
VN-CLOCK
  binding: binds
VN-BMAL1
  binding: binds

## VC-MEF2C (from UniProt Q8CFN5 1-474)
VN-HDAC5
  binding: binds

## VC-BMAL1 (from UniProt Q9WTL8 1-632)
VN-CLOCK
  binding: binds
VN-MYOD1
  binding: binds
